Results are given in words; binding and its absence hold for the method and conditions named. In cells and extracts the contact can be indirect. Some entries that bind do so weakly or less than the wild type.
Target: Heat shock protein family A member 1A (HSPA1A) (rat (endogenous in spinal cord tissue)) (UniProt P0DMW0)
Test: co-IP; rat spinal cord tissue lysed in RIPA buffer with PMSF, sonicated; protein A/G magnetic beads with the protein-antibody solution, 4 °C, 12 h; immunoblotting; precipitating antibody not stated

Chains of the proteins cited; added tags and fusions are not shown.
UniProt P0DMW0: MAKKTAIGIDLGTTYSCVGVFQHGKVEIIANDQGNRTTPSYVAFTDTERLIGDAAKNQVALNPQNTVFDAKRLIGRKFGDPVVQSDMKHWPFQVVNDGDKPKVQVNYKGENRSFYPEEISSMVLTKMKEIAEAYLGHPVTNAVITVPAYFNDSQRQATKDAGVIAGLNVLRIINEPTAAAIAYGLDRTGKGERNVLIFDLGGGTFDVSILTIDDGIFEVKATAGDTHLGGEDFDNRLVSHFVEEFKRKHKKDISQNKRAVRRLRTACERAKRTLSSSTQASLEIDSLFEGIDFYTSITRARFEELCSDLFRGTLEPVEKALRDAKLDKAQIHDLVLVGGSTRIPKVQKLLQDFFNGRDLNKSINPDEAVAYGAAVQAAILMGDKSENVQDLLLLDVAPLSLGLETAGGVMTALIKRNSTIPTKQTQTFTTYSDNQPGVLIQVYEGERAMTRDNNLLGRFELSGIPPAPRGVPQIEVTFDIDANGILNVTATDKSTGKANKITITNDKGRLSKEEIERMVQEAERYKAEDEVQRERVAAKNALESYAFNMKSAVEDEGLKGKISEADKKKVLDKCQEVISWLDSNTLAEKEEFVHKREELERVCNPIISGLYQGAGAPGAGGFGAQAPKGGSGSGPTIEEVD

B1: Dual specificity phosphatase 1 (DUSP1) (protein, UniProt Q64623 1-367)
chain: MVMEVGILDAGGLRALLRERAAQCLLLDCRSFFAFNAGHIVGSVNVRFSTIVRRRAKGAMGLEHIVPNTELRGRLLAGAYHAVVLLDERSAALDGAKRDGTLALAAGALCREARSTQVFFLQGGYEAFSASCPELCSKQSTPMGLSLPLSTSVPDSAESGCSSCSTPLYDQGGPVEILSFLYLGSAYHASRKDMLDALGITALINVSANCPNHFEGHYQYKSIPVEDNHKADISSWFNEAIDFIDSIKDAGGRVFVHCQAGISRSATICLAYLMRTNRVKLDEAFEFVKQRRSIISPNFSFMGQLLQFESQVLAPHCSAEAGSPAMAVLDRGTSTTTVFNFPVSIPVHPTNSALNYLQSPITTSPSC
binding: binds

Source: article PMC11809008
